Assay results taken from the supplement of paper PMC4604168 (melanoma cell lines).
Some of the results follow. Repeats are few or missing, and single values can be far off.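 The apoptosis fraction was the count of cleaved-PARP antibody-stained nuclei relative to all DNA-stained nuclei, imaged in 1,536-well plates. Screening doses were set so most cells survived, and baseline and induced cleaved-PARP levels vary greatly across cell lines.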

system: WM3619; experiment: cleaved PARP positive nuclei fraction relative to DMSO control; melanoma cells; higher = more apoptosis; details: library dose: low library concentration; 72 h

Point of comparison: `CC1(C)CCC(c2ccc(Cl)cc2)=C(CN2CCN(c3ccc(C(=O)NS(=O)(=O)c4ccc(N[C@H](CCN5CCOCC5)CSc5ccccc5)c(S(=O)(=O)C(F)(F)F)c4)cc3)CC2)C1` + O=C(Oc1ccc([N+](=O)[O-])cc1)N1CCC(C(O)(c2ccc3c(c2)OCO3)c2ccc3c(c2)OCO3)CC1 [JZL184] (first compound 0.4 µM, partner dose 1 µM), “cleaved PARP positive nuclei fraction” value 112%. Against it:
- C=CCNC1=C2C[C@@H](C)C[C@H](OC)[C@H](O)[C@@H](C)/C=C(\C)[C@H](OC(N)=O)[C@@H](OC)/C=C\C=C(/C)C(=O)NC(=CC1=O)C2=O [Tanespimycin] + Cc1cc(SCc2sc(-c3ccc(C(F)(F)F)c(F)c3)nc2C)ccc1OCC(=O)O [GW0742] (first compound 0.002 µM, partner dose 2 µM) — lower, 100%
- O=C(O)c1ccc2c(c1)nc(Nc1cccc(Cl)c1)c1ccncc12 + O=C(Oc1ccc([N+](=O)[O-])cc1)N1CCC(C(O)(c2ccc3c(c2)OCO3)c2ccc3c(c2)OCO3)CC1 [JZL184] (first compound 0.4 µM, partner dose 1 µM) — lower, 87.9%
- N.N.[Cl][Pt][Cl] [cisplatin] + Cc1cc(N2CCOCC2)cc2[nH]c(-c3c(NC[C@@H](O)c4cccc(Cl)c4)cc[nH]c3=O)nc12 [BMS536924] (first compound 1.6 µM, partner dose 0.2 µM) — higher, 120%
- Cc1cc(Nc2cc(N3CCN(C)CC3)nc(/C=C/c3ccccc3)n2)n[nH]1 + C/C(O)=C(\C#N)C(=O)Nc1cc(Br)ccc1Br [LFM-A13] (first compound 0.04 µM, partner dose 2 µM) — lower, 96.1%
